One molecule from patent publication US20250163186A1 can be followed below.

Sequences of proteins named here, by UniProt entry; tags and fusion partners are left off. A change or cut given only in a name is not applied to a line headed by its entry. A line that says so, or that is headed by a name, gives the form on record, which may keep a tag or linker.
human IgM (Novus, NBP1-97056) (P01871, form named): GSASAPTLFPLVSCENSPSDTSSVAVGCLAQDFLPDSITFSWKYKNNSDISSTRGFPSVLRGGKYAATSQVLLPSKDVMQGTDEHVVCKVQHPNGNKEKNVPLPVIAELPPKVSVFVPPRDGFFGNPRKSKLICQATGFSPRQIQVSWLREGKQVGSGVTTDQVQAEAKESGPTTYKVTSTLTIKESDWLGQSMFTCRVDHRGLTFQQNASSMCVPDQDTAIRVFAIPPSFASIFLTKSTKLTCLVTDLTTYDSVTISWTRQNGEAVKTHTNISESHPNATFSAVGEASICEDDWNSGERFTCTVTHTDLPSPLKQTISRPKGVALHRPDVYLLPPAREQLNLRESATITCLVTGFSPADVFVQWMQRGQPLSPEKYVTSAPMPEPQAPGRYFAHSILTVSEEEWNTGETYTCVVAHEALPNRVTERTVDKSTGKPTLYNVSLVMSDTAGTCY
Human IgD (AbCam, Cat. No. Ab91022) (P01880, form named): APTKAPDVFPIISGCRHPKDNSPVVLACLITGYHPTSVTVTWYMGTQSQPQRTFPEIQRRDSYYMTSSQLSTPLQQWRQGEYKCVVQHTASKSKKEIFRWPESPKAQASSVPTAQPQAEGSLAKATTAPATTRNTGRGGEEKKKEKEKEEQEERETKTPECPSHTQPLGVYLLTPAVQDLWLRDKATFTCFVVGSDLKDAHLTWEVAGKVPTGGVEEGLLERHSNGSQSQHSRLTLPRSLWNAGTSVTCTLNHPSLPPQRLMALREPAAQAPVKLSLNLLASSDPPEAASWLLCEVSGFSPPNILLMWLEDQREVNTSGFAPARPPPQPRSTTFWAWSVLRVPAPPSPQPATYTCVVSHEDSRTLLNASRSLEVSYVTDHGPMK

The target of assay [1] is human IgM (Novus, NBP1-97056) (human) (UniProt P01871). As to the kind of experiment: ELISA, plate-coated immunoglobulin. On the technique in general: In an ELISA, binding on a coated surface is turned into a signal by an enzyme label.
For assay [2], the target named is Human IgD (AbCam, Cat. No. Ab91022) (human) (UniProt P01880). As to the kind of experiment: ELISA, plate-coated immunoglobulin.

Results are given in words; binding and its absence hold for the method and conditions named. Some results given as binding are weak or reduced against the parent protein; the word gives no strength. Sequences can lack the tags named with a protein.

B1: cx10710, comprising IgG1 SELF Fc (antibody, V domains shown)
VH: QVQLQESGPGLVKPSETLSLTCAVSGYSITSGYSWNWIRQPPGKKLEWIGSITYDGSSNYNPSLKSRVTISRDTSKNQFSLKLSSVTAADTAVYYCARGSHYFGHWHFAVWGAGTLVTVSS
VL: DIQLTQSPSSLSASVGDRVTITCRASQSVDYDGDSYMNWYQQKPGQPPKLLIYAASYLGSEIPARFSGSGSGTDFTLTISSLQPEDFATYYCQQSHEDPYTFGAGTKLEIKR
Consider B1, for which the binding result in assay [1] and in assay [2] was “binds” each time.
